The exact form of at least one protein or probe is not confirmed.
System: PTK7 (cynomolgus monkey)
Experiment: SPR
Details: 5 mM Mg2+, Kd only in figure, SPR (Biacore 8K, CM5): DPBS + 5 mM MgCl2, 10 uL/min, 180 s association and dissociation, temperature and pH of running buffer not stated, commercial protein, protein details: His, folded or branched DNA

| Sequence | binding result (400 nM, 3'-C6-S-maleimide MC-VC-PAB-MMAE conjugate) | binding result |
| --- | --- | --- |
| ATCTAACTGCTGCGCCGCCGGGAAAATACTGTACGGTTAGA [Sgc8c-M] | binds | – |
| ATCTAACTGCTGCGCCGCCGGGAAAATACTGTACGGTTAGA [Sgc8c] | – | binds |
